Experimental data from patent US20140105855A1.
These are yes or no findings as the source states them, for the method shown. Some results given as binding are weak or reduced against the parent protein; the word gives no strength.

Biological target: T1, preformed IL-17RC-IL-17F complex (IL-17F captured by immobilised IL-17RC) (human) (UniProt Q8NAC3+Q96PD4)
T1 sequence (chain, biotin on the C-terminal BirA ligase tag) 1: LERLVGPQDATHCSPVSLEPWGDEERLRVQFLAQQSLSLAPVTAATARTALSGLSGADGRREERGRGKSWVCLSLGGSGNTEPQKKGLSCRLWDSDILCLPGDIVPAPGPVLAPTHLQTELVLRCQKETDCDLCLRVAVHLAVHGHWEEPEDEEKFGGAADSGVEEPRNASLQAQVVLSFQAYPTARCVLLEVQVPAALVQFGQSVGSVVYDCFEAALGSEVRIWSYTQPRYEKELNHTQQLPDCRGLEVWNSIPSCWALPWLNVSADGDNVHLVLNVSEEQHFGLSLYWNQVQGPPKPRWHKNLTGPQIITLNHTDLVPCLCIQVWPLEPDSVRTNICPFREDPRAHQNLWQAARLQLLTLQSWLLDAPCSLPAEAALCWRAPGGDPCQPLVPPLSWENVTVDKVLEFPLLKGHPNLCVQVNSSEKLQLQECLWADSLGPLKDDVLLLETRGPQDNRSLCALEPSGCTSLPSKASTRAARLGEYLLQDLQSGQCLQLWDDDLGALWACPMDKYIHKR
T1 sequence (chain, biotin on the C-terminal BirA ligase tag) 2: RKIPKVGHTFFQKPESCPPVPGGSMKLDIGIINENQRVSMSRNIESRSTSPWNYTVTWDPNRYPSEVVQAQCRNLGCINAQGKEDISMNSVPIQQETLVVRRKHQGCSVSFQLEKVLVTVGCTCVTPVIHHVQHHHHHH
Experiment: SPR, second receptor injected over IL-17F captured on immobilised IL-17RC

B1: IL-17RC extracellular domain (receptor, UniProt Q8NAC3 21-538, looked up)
chain: LERLVGPQDATHCSPVSLEPWGDEERLRVQFLAQQSLSLAPVTAATARTALSGLSGADGRREERGRGKSWVCLSLGGSGNTEPQKKGLSCRLWDSDILCLPGDIVPAPGPVLAPTHLQTELVLRCQKETDCDLCLRVAVHLAVHGHWEEPEDEEKFGGAADSGVEEPRNASLQAQVVLSFQAYPTARCVLLEVQVPAALVQFGQSVGSVVYDCFEAALGSEVRIWSYTQPRYEKELNHTQQLPDCRGLEVWNSIPSCWALPWLNVSADGDNVHLVLNVSEEQHFGLSLYWNQVQGPPKPRWHKNLTGPQIITLNHTDLVPCLCIQVWPLEPDSVRTNICPFREDPRAHQNLWQAARLQLLTLQSWLLDAPCSLPAEAALCWRAPGGDPCQPLVPPLSWENVTVDKVLEFPLLKGHPNLCVQVNSSEKLQLQECLWADSLGPLKDDVLLLETRGPQDNRSLCALEPSGCTSLPSKASTRAARLGEYLLQDLQSGQCLQLWDDDLGALWACPMDKYIHKR
With B1 the binding was “binds”.
